Measured values: the supplement of paper PMC5949888
± gives the standard deviation of the averaged measurements. Most values lie at the floor of the assay. Slopes are relative: functional sequences can read slightly below zero.

System: Saccharomyces cerevisiae PS128 hsf1 delta, HSF1(1-493) fusion
Test: growth estimate (transactivation domain function in HSF1 fusion, heat-shock survival) (a.u. (slope of normalised read count over time)); higher = stronger growth at 37°C, i.e. more transactivation activity
Details: library: random library

For RSVSAMLVPASLISGVGSQP, which growth estimate is on record?
The growth estimate was under -0.25.

Which growth estimate does the source give for RSVSVGSDLFCGVRPTSVFA here?
Its growth estimate is under -0.25.

RSVTTPVRQRCAKGIRRRAL was tested. Which growth estimate did it give?
Its growth estimate is under -0.25.

RSWAGSVRSLKIK was tested. Which growth estimate did it give?
The growth estimate was under -0.25.

RSWAVILHWAGNAM was tested. Which growth estimate did it give?
The growth estimate was under -0.25.

Which growth estimate does the source give for RSWENQDL here?
The growth estimate was under -0.25.

How did the growth estimate turn out when RSWVSF was run?
The growth estimate was under -0.25.

With RSYACVHARAINVSVE as the substance, how does the growth estimate read?
Its growth estimate is under -0.25.

Which growth estimate does the source give for RSYAPAESGAVSNYGHVVAF here?
Its growth estimate is under -0.25.

Which growth estimate does the source give for RSYKPSLSFTGPTYLQ here?
Its growth estimate is under -0.25.

For RSYRTLVKGNGGPLGT, which growth estimate is on record?
The growth estimate was under -0.25.

With RSYVV as the substance, how does the growth estimate read?
The growth estimate was under -0.25.

Which growth estimate does the source give for RTATQCRYALYILGQKCERH here?
The growth estimate was under -0.25.

How did the growth estimate turn out when RTCKTPDPVLNKVGHPVLSL was run?
The growth estimate was under -0.25.

For RTDECSPKL, which growth estimate is on record?
The growth estimate was under -0.25.

For RTDPRAHSLPKDGGGNNQCL, which growth estimate is on record?
Its growth estimate is under -0.25.

With RTFRPADGCSRDECTEVVRP as the substance, how does the growth estimate read?
The growth estimate was under -0.25.

With RTGKVTLLKYWPSSDILRGE as the substance, how does the growth estimate read?
Its growth estimate is under -0.25.

How did the growth estimate turn out when RTGRIRRCDPSRSERLSVPT was run?
Its growth estimate is under -0.25.

Which growth estimate does the source give for RTHLKLGLFEVTAPT here?
The growth estimate was under -0.25.

For RTIHERASVILLHRVLQARV, which growth estimate is on record?
Its growth estimate is under -0.25.

How did the growth estimate turn out when RTIISTSGARFLRITCFGNG was run?
Its growth estimate is under -0.25.

How did the growth estimate turn out when RTILVNILCVGALHPGVTYA was run?
The growth estimate was under -0.25.

Which growth estimate does the source give for RTIPDGAYLMSVSSQ here?
Its growth estimate is under -0.25.

For RTKHMAACRPSCS, which growth estimate is on record?
The growth estimate was under -0.25.

With RTKICRLVLVNGHRDVARNR as the substance, how does the growth estimate read?
The growth estimate was under -0.25.

For RTKTTLHTPGVRLERGPV, which growth estimate is on record?
The growth estimate was under -0.25.

For RTLC, which growth estimate is on record?
The growth estimate was under -0.25.

For RTLDEGTLRRRPFLS, which growth estimate is on record?
The growth estimate was under -0.25.

For RTLIVE, which growth estimate is on record?
Its growth estimate is under -0.25.

How did the growth estimate turn out when RTLLSRGLPLVSRHGTWSPT was run?
The growth estimate was under -0.25.

With RTLQAVRRGGSTGCSGQRVA as the substance, how does the growth estimate read?
Its growth estimate is under -0.25.

For RTLRLALAKACIDQVLVNAG, which growth estimate is on record?
Its growth estimate is under -0.25.

For RTLRRIARTLQPG, which growth estimate is on record?
Its growth estimate is under -0.25.

With RTLTVTGSHWLRFFLDGSLL as the substance, how does the growth estimate read?
The growth estimate was under -0.25.

How did the growth estimate turn out when RTNARPRSAA was run?
Its growth estimate is under -0.25.

With RTNKLSCLFGTASVGGYNGA as the substance, how does the growth estimate read?
The growth estimate was under -0.25.

For RTNPHSASRLKSVPPGQLST, which growth estimate is on record?
Its growth estimate is -0.246.

Which growth estimate does the source give for RTPDYTPTA here?
Its growth estimate is under -0.25.

With RTPGLAAGHRGFRP as the substance, how does the growth estimate read?
Its growth estimate is under -0.25.

RTPIWKQRLRFGQDWDN was tested. Which growth estimate did it give?
Its growth estimate is under -0.25.

For RTPKVVIRVSSSSFYALTKG, which growth estimate is on record?
The growth estimate was under -0.25.

How did the growth estimate turn out when RTPLLEFIL was run?
Its growth estimate is under -0.25.

For RTPMARNKRYISALYEAVYQ, which growth estimate is on record?
Its growth estimate is under -0.25.

How did the growth estimate turn out when RTPRRDVTYLVRVLTIIIVD was run?
The growth estimate was under -0.25.

RTQALSY was tested. Which growth estimate did it give?
Its growth estimate is under -0.25.

Which growth estimate does the source give for RTQF here?
Its growth estimate is -0.231.

For RTR, which growth estimate is on record?
Its growth estimate is under -0.25.

How did the growth estimate turn out when RTRAGPAARLTPE was run?
The growth estimate was -0.248.

For RTRGLDPSGKRILCIPGPIP, which growth estimate is on record?
Its growth estimate is under -0.25.

With RTRHVKAIWRGFFC as the substance, how does the growth estimate read?
Its growth estimate is under -0.25.

Which growth estimate does the source give for RTRLQGSVGIRLAGSLSGLA here?
Its growth estimate is under -0.25.

Which growth estimate does the source give for RTRRGVRARFFWKR here?
Its growth estimate is -0.231.

For RTRSCILYRLSPLKGTWSVS, which growth estimate is on record?
Its growth estimate is under -0.25.

For RTRVPARCTTRKGDTISVAG, which growth estimate is on record?
Its growth estimate is under -0.25.

Which growth estimate does the source give for RTSFGAHKDAIHRTSGQSSP here?
The growth estimate was under -0.25.

How did the growth estimate turn out when RTSIRGLGYAFSLRYERYPR was run?
Its growth estimate is under -0.25.

How did the growth estimate turn out when RTSLCAFSRAFSSSLSRLNH was run?
The growth estimate was under -0.25.

Which growth estimate does the source give for RTSR here?
The growth estimate was under -0.25.

With RTSSESSFSRRRHKRS as the substance, how does the growth estimate read?
The growth estimate was under -0.25.

With RTSVSENPRVGRCAVQIAQR as the substance, how does the growth estimate read?
Its growth estimate is under -0.25.

RTSVTC was tested. Which growth estimate did it give?
Its growth estimate is under -0.25.

With RTTFGHGRKSLLVLGLVWRE as the substance, how does the growth estimate read?
The growth estimate was under -0.25.

With RTTQFQI as the substance, how does the growth estimate read?
Its growth estimate is under -0.25.

RTTRIFRSIATAMSRDTGEC was tested. Which growth estimate did it give?
Its growth estimate is under -0.25.

How did the growth estimate turn out when RTTRRQPRSRTCRLIEYFLW was run?
Its growth estimate is under -0.25.

With RTTSRSLRRRGPPIQREPTQ as the substance, how does the growth estimate read?
Its growth estimate is -0.235.

Which growth estimate does the source give for RTTTGPETRKRA here?
The growth estimate was under -0.25.

RTV was tested. Which growth estimate did it give?
Its growth estimate is -0.212 ± 0.053.

For RTVAFRGLSDLVAPTVPY, which growth estimate is on record?
Its growth estimate is under -0.25.

Which growth estimate does the source give for RTVVKRPVYSVYSPASKMIR here?
The growth estimate was under -0.25.

How did the growth estimate turn out when RTWAEDDMITAQPVERPRSI was run?
Its growth estimate is under -0.25.

With RTYRDGGRTQ as the substance, how does the growth estimate read?
Its growth estimate is under -0.25.

How did the growth estimate turn out when RVAACGLCSPVIICAVPCVH was run?
Its growth estimate is under -0.25.

How did the growth estimate turn out when RVARPYVH was run?
The growth estimate was under -0.25.

With RVCHDFNLTAFVLRHCCEKG as the substance, how does the growth estimate read?
The growth estimate was under -0.25.

With RVDI as the substance, how does the growth estimate read?
Its growth estimate is under -0.25.

How did the growth estimate turn out when RVDLQRMVQEAQSPVASVDW was run?
Its growth estimate is under -0.25.

Which growth estimate does the source give for RVDLV here?
Its growth estimate is under -0.25.

Which growth estimate does the source give for RVDTATHKVIGALVLLEASI here?
The growth estimate was under -0.25.

Which growth estimate does the source give for RVDVLMSK here?
Its growth estimate is under -0.25.

With RVEGASGNVFSPRRERPPLG as the substance, how does the growth estimate read?
The growth estimate was under -0.25.

RVELAMR was tested. Which growth estimate did it give?
The growth estimate was under -0.25.

For RVELLSTRPYEASSLDRSEV, which growth estimate is on record?
The growth estimate was under -0.25.

How did the growth estimate turn out when RVESNLRKP was run?
The growth estimate was under -0.25.

How did the growth estimate turn out when RVEVVTESAF was run?
The growth estimate was under -0.25.

With RVFVFPLYV as the substance, how does the growth estimate read?
The growth estimate was under -0.25.

RVGCMTLGAHSQFGILIDGI was tested. Which growth estimate did it give?
Its growth estimate is -0.246.

With RVGESQPCSFRTFTRSARRP as the substance, how does the growth estimate read?
Its growth estimate is under -0.25.

Which growth estimate does the source give for RVGHIPGSSAVGAYRVYVMI here?
Its growth estimate is under -0.25.

With RVGHPVSPHGEFKPPPEEIR as the substance, how does the growth estimate read?
Its growth estimate is under -0.25.

Which growth estimate does the source give for RVGI here?
Its growth estimate is under -0.25.

Which growth estimate does the source give for RVGIQAVSP here?
The growth estimate was under -0.25.

RVGLRGSNPRV was tested. Which growth estimate did it give?
Its growth estimate is under -0.25.

RVGLTVKRLPRSLA was tested. Which growth estimate did it give?
The growth estimate was -0.25.

With RVGNG as the substance, how does the growth estimate read?
Its growth estimate is under -0.25.

With RVGS as the substance, how does the growth estimate read?
The growth estimate was under -0.25.
